Experimental data: PubChem BioAssay AID652259 (Drosophila RNAi Screening Center, 2013)

Test: 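Identify new Wingless signalling regulators in fly cells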 (primary screen)
Cells: Drosophila clone 8 imaginal disc epithelial cells
Reagent: long dsRNA against Drosophila genes
Treatment: pathway stimulated by co-transfected Wingless expression plasmid
Detection: 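Dual luciferase reads per well after Wingless plasmid stimulation: reporter firefly light and Renilla control light; activity is firefly divided by Renilla, a ratio not deposited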
Scale: firefly reporter light: higher = more Wg reporter light, before normalisation; Renilla control light: higher = more transfected or surviving cells
Call rule: 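Strong candidates differ from their plate mean by at least two out of four per-plate statistical tests; weak candidates meet just one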
Calls: active = candidate regulator (raises or lowers reporter); inactive = not a candidate
The deposit covers about 22,000 reagents; this is a random part of those with a known target gene and a result. Of all reagents, 233 (1.1%) are marked active. 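Light values are raw, unnormalised plate reads; the ratio scores behind the reporter calls were not deposited.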 Unmarked entries are inactive. The numbers tell different reagents against one gene apart. No sequences are given here. The record does not give: the amount of reagent, the time to read-out, the dose of the treatment.

Gene | reagent no. | reporter change call, replicate 1 | firefly reporter light, replicate 1 | firefly reporter light, replicate 2 | Renilla control light, replicate 1 | Renilla control light, replicate 2
dbe | 1 | – | 13136 | – | 5442 | –
CG15127 | 1 | – | 19094 | – | 15248 | –
CG15127 | 2 | – | 7594 | – | 2808 | –
Grasp65 | 1 | – | 12785 | – | 4096 | –
Tim17a2 | 1 | – | 17621 | – | 5876 | –
Der-1 | 1 | – | 10018 | – | 4493 | –
Fam92 | 1 | – | 9448 | – | 3243 | –
Rpn9 | 1 | – | 2549 | 4421 | 659 | 1026
Pits | 1 | – | 32197 | – | 9195 | –
Pits | 2 | – | 24909 | – | 13048 | –
l(2)05714 | 1 | – | 8784 | – | 3403 | –
CG30089 | 1 | – | 18706 | 6.96e5 | 4233 | 3.54e5
CG30089 | 2 | – | 6711 | – | 625 | –
CG30089 | 3 | Wg reporter activity lowered | 14817 | – | 4299 | –
CG30089 | 4 | – | 3811 | – | 1012 | –
CG30089 | 5 | – | 8.04e5 | 7.41e5 | 2.48e5 | 2.29e5
CG11437 | 1 | – | 22934 | – | 7540 | –
Lnpk | 1 | – | 13989 | – | 3968 | –
Mtpalpha | 1 | – | 6179 | – | 2001 | –
Vps4 | 1 | Wg reporter activity raised (active) | 4556 | 14823 | 493 | 2417
Usf | 1 | – | 20997 | – | 8802 | –
ItgaPS5 | 1 | – | 3400 | 10922 | 877 | 4053
CG3534 | 1 | – | 10843 | – | 2967 | –
CG14115 | 1 | – | 7741 | – | 2960 | –
Mcad | 1 | – | 5204 | – | 2151 | –
CG30281 | 1 | – | 11044 | – | 3865 | –
CR43999 (retired record) | 1 | – | 20915 | – | 18299 | –
bi | 1 | – | 27417 | – | 10704 | –
Vajk2 | 1 | – | 3961 | 9379 | 1732 | 4658
RpL5 | 1 | – | 1782 | 4630 | 564 | 1724
spel1 | 1 | – | 2880 | 8123 | 1291 | 3952
CG46301 | 1 | – | 4289 | 7780 | 1400 | 3572
eIF4B | 1 | – | 21304 | – | 11634 | –
Samuel | 1 | – | 2250 | 4149 | 650 | 1674
Samuel | 2 | Wg reporter activity raised (active) | 7435 | 2996 | 1222 | 459
Samuel | 3 | – | 3370 | 8371 | 1380 | 4754
Samuel | 4 | – | 5.15e5 | 5.35e5 | 1.94e5 | 1.46e5
Ilp6 | 1 | – | 21808 | – | 15712 | –
mRpL44 | 1 | – | 5749 | – | 2409 | –
CG12912 | 1 | – | 1063 | 2161 | 132 | 349
CG14841 | 1 | – | 15053 | – | 3770 | –
cg | 1 | – | 6973 | – | 592 | –
Chs2 | 1 | – | 8537 | – | 2788 | –
CG7173 | 1 | – | 6067 | – | 802 | –
fau | 1 | – | 3603 | – | 1320 | –
fau | 2 | – | 3031 | – | 1613 | –
fau | 3 | – | 6403 | – | 3126 | –
fau | 4 | – | 13616 | – | 3718 | –
fau | 5 | – | 18647 | – | 5206 | –
fau | 6 | – | 6.89e5 | 6.81e5 | 2.37e5 | 2.05e5
wit | 1 | – | 4528 | – | 2200 | –
CG42322 | 1 | – | 2832 | 8861 | 1521 | 1814
CG42322 | 2 | – | 14528 | – | 4201 | –
CG42322 | 3 | – | 15752 | – | 2166 | –
Rpn2 | 1 | – | 1465 | 3206 | 475 | 1273
Mgat1 | 1 | – | 5210 | – | 2197 | –
vap | 1 | – | 2439 | 7297 | 747 | 1909
beag | 1 | – | 8704 | – | 2502 | –
CG14322 | 1 | – | 9782 | – | 1850 | –
CG32795 | 1 | – | 17970 | – | 12723 | –
CG32795 | 2 | – | 19350 | – | 15097 | –
CG3770 | 1 | – | 12905 | – | 3338 | –
CG14300 | 1 | – | 20253 | – | 3683 | –
CG5399 | 1 | – | 9493 | – | 3056 | –
CG14556 | 1 | – | 19785 | – | 14787 | –
Ddr | 1 | – | 11751 | – | 6624 | –
Ddr | 2 | – | 13888 | – | 6368 | –
Ddr | 3 | – | 2168 | 7367 | 409 | 2976
Ddr | 4 | – | 3381 | 8080 | 1019 | 3283
Ddr | 5 | – | 3659 | 9916 | 509 | 4805
Ddr | 6 | – | 5.51e5 | 6.49e5 | 2.31e5 | 2.84e5
Ir75c | 1 | – | 7755 | – | 3659 | –
CG14805 | 1 | – | 18866 | – | 13122 | –
CG4269 | 1 | – | 2468 | 6368 | 553 | 2138
egl | 1 | – | 3593 | 7041 | 915 | 3290
Axn | 1 | Wg reporter activity raised (active) | 23689 | 37908 | 1305 | 2560
firl | 1 | – | 2784 | 6855 | 1351 | 2728
CG10914 | 1 | – | 6954 | – | 2976 | –
Ost48 | 1 | – | 3588 | 7496 | 1171 | 2614
MBD-like | 1 | – | 7213 | – | 2877 | –
CG6271 | 1 | – | 3821 | 8594 | 928 | 2080
CG10205 | 1 | – | 10344 | – | 2325 | –
CG34144 (retired record) | 1 | – | 3971 | – | 1137 | –
CG34144 (retired record) | 2 | – | 14693 | – | 11256 | –
CG34144 (retired record) | 3 | – | 22637 | – | 9243 | –
Had1 | 1 | – | 18983 | – | 7019 | –
Naa20A | 1 | – | 3616 | 4772 | 1161 | 1400
CG2269 | 1 | – | 14796 | – | 5301 | –
Try29F | 1 | – | 2988 | 9640 | 1153 | 4359
Stam | 1 | – | 6816 | – | 2763 | –
spdi | 1 | – | 1581 | 3585 | 839 | 1464
spdi | 2 | – | 13277 | – | 12433 | –
bowl | 1 | – | 9192 | – | 4269 | –
